In patent US20100021421A1 (MCGILL UNIVERSITY, published 2010):
Results are given in words; binding and its absence hold for the method and conditions named. Some binding calls cover weakened binding; strength is not graded here. Tags and fused reporters may be left off the sequences shown.

Molecular target: T1, recombinant mouse IL-15Ralpha-Fc (mouse), Q60819
T1 chain: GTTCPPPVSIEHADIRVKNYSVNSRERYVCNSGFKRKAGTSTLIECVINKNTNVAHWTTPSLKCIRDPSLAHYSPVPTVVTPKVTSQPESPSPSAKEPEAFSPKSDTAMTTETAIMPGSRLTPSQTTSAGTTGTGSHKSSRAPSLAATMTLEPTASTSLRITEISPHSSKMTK
Experiment: SPR (BIACORE 3000), rIL-15Rα-Fc amine-coupled on a CM5 chip, analyte injected 180 sec association + 180 sec dissociation
Conditions: remark: other sources report otherwise

B1: recombinant mouse IL-15, P48346 49-162 (ligand, UniProt P48346 49-162, looked up)
chain: NWIDVRYDLEKIESLIQSIHIDTTLYTDSDFHPSCKVTAMNCFLLELQVILHEYSNMTLNETVRNVLYLANSTLSSNKNVAESGCKECEELEEKTFTEFLQSFIRIVQMFINTS
**Q.** Which binding does the source give for B1 here?
**A.** binds
